Measurements as given in the supplement of paper PMC12823440, “Inhibitors supercharge kinase turnover through native proteolytic circuits” (Nature, 2025).
The other results are listed elsewhere or left out. The calls rarely recur for the same compound in another form.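 Kinases were expressed as nanoluciferase fusions in K562 cells and luminescence was read every 4 h between 2 and 18 h as percent of control, DMSO set to 100% and a positive control to 0%. A time point counts as decreased when the signal drops significantly (2 sigma). The hit call is the authors' own, does not follow from the count of time points alone, and its rule is not shown.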

Sequences of proteins named here, by UniProt entry; tags and fusion partners are left off. A change or cut given only in a name is not applied to a line headed by its entry.
UniProt P53350, whole entry: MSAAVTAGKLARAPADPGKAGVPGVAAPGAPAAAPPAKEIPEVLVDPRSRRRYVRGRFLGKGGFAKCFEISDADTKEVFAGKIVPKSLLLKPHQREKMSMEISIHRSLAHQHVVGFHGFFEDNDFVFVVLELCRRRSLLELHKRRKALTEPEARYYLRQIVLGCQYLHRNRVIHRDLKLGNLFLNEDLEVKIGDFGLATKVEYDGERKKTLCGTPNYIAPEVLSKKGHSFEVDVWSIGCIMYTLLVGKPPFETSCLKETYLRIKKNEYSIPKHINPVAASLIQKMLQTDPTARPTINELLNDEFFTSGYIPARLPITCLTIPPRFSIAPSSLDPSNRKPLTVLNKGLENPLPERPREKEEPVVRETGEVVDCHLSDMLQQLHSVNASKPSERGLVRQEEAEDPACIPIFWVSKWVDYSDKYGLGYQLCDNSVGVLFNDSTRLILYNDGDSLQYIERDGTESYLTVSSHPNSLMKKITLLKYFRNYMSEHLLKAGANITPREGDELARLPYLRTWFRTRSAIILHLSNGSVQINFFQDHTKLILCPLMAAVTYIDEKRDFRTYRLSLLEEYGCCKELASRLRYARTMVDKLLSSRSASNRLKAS
UniProt P07948: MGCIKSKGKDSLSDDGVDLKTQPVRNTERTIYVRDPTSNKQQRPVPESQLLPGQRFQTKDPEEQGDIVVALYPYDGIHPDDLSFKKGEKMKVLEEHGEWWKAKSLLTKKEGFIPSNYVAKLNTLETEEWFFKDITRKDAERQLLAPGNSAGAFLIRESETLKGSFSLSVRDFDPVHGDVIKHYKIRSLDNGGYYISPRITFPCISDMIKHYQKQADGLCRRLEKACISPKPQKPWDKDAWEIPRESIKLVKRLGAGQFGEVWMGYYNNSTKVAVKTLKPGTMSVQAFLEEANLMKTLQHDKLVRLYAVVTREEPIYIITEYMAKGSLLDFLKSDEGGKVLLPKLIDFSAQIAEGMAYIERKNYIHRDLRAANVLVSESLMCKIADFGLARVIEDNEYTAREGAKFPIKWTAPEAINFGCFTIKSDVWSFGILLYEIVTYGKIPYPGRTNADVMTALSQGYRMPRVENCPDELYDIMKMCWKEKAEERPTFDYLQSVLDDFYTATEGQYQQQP
UniProt P06239: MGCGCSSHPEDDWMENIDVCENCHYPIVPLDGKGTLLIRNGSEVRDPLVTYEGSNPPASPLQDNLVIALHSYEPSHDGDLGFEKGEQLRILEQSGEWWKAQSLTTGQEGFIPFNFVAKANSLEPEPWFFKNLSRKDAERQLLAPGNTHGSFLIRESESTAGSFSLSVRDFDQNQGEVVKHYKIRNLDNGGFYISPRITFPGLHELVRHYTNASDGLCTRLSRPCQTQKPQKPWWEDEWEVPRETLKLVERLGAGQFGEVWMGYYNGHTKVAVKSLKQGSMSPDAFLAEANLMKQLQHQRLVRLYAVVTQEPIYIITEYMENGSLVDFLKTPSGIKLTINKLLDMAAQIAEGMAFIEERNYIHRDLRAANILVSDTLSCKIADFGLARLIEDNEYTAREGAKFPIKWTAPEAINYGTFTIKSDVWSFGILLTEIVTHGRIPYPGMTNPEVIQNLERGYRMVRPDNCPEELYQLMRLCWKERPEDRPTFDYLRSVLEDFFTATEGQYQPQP
UniProt Q00535, whole entry, looked up: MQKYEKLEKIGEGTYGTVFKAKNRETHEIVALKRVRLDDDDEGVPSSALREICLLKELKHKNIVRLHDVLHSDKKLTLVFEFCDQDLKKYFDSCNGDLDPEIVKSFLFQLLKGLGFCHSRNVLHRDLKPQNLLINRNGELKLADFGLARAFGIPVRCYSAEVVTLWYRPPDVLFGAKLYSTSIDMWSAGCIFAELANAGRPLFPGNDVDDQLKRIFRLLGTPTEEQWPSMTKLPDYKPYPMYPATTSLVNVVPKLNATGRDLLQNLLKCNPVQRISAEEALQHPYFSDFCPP
UniProt P48730: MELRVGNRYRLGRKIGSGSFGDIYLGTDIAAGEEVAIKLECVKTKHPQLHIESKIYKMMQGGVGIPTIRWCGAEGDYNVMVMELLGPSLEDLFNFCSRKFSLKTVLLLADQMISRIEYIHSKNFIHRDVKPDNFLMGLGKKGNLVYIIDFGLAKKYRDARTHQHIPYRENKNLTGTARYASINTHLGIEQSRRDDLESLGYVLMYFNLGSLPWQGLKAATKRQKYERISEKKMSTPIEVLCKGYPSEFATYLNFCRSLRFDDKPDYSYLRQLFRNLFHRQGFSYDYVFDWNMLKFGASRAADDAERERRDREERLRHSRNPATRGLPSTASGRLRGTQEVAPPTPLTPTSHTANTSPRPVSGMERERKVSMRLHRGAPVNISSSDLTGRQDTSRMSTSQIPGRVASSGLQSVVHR
UniProt P07949, whole entry M918T, looked up: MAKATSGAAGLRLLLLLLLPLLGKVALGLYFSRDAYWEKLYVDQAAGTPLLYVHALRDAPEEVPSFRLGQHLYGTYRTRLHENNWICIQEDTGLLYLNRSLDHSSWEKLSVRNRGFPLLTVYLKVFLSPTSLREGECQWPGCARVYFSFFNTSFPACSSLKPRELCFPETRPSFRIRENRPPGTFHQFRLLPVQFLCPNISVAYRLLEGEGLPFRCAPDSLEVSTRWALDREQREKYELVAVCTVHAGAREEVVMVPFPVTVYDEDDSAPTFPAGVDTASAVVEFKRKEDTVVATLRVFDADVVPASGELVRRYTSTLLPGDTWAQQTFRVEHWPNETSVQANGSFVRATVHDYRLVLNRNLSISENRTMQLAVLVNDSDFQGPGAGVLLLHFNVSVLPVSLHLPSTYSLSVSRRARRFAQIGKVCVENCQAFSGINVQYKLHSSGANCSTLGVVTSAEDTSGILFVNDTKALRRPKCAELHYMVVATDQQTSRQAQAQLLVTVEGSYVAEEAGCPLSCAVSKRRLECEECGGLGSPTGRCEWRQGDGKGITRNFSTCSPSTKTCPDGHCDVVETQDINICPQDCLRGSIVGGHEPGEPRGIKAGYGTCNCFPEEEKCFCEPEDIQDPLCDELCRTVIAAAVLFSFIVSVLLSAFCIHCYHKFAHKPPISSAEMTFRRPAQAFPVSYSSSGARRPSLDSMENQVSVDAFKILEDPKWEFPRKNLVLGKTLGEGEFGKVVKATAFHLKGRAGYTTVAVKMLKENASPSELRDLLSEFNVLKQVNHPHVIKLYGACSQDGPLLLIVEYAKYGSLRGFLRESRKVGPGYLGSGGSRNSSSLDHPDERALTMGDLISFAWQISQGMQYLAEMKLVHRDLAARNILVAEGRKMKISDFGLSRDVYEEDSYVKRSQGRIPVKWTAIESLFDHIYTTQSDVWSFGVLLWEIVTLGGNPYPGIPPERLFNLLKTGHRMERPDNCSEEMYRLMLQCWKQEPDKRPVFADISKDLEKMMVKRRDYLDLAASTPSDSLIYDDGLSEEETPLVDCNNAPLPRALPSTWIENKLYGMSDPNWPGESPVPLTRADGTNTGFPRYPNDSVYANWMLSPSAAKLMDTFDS
UniProt Q16288, whole entry, looked up: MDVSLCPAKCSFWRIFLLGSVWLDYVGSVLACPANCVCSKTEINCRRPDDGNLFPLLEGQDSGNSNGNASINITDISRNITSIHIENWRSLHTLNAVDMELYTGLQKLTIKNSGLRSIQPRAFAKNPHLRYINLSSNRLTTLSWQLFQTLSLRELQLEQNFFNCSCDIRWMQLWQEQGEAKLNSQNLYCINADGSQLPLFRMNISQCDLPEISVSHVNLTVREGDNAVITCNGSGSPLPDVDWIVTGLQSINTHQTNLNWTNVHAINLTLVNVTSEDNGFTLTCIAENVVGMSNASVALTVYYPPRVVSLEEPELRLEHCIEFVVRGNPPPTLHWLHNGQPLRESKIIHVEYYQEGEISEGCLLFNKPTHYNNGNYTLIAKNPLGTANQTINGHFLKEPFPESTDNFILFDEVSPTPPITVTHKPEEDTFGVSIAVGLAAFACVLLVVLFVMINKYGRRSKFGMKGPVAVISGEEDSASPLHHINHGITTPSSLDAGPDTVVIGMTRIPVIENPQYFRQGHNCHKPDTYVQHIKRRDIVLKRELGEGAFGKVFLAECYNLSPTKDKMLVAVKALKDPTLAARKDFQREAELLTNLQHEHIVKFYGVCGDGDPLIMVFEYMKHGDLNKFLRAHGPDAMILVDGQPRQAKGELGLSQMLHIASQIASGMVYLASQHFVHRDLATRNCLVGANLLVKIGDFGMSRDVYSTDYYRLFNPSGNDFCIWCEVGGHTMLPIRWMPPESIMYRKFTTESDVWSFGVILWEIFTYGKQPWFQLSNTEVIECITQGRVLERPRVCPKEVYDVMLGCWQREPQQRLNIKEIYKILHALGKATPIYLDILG
UniProt Q06187: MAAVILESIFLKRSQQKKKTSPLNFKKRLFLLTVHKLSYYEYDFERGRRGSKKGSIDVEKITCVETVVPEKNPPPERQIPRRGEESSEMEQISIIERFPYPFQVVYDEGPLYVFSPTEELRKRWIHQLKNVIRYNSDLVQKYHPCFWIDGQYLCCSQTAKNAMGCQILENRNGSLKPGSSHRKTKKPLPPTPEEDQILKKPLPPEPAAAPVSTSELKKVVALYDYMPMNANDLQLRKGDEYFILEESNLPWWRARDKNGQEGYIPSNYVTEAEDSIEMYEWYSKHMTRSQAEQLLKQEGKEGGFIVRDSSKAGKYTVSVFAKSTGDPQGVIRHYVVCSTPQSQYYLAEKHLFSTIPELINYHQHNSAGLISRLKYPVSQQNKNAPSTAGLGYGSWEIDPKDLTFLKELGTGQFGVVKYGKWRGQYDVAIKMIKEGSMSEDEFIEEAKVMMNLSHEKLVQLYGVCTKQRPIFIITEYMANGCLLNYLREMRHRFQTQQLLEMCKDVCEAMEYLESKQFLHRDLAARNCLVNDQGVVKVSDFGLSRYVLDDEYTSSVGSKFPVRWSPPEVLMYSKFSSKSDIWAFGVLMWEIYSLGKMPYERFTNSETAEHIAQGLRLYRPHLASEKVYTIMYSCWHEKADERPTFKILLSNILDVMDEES
UniProt Q05397, whole entry, looked up: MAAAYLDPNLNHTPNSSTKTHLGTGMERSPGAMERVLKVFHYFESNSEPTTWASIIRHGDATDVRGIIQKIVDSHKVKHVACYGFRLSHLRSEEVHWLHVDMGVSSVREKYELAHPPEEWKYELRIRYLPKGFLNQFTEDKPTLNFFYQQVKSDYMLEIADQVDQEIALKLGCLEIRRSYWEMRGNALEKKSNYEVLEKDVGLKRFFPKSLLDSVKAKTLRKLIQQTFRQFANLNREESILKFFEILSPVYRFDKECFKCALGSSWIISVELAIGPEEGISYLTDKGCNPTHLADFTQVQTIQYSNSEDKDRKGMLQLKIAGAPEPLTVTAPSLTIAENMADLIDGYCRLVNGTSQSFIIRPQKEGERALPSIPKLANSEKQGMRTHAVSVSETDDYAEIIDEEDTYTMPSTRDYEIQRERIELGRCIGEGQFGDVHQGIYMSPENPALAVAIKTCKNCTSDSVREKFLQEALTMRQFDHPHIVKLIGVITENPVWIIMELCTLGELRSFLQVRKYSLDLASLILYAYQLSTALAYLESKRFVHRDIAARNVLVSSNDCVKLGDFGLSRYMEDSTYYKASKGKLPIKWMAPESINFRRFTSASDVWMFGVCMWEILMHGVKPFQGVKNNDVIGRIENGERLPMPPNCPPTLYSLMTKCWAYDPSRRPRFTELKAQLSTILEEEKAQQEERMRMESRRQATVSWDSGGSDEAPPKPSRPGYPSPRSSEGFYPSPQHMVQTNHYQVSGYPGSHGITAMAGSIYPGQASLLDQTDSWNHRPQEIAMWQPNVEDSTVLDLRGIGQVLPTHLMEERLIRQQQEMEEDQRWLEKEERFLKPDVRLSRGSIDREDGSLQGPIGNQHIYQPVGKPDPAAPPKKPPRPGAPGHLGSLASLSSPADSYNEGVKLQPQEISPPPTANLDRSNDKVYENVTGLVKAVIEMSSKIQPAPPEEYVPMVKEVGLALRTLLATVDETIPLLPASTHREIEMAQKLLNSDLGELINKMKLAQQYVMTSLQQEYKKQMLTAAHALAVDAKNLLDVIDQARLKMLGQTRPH

How the values were obtained:
Assay in all cases: number of time points (of 5) at which kinase-Nluc abundance scored as decreased, DMSO-normalised (count); higher = more persistent destabilization
[1] = compound: CCc1cc2c(cc1-c1cnn(CC(=O)N(C)C)c1)C(C)(C)c1[nH]c3cc(C#N)ccc3c1C2=O; details: 2.5 µM; K562; 2-18 h
[2] = compound: CCn1c(=O)c(-c2cc(NC(=O)Nc3ccccc3)c(F)cc2Br)cc2cnc(NC)cc21 [Ripretinib]; details: 10 µM; K562; 2-18 h
[3] = compound: CN1CCN(c2ccc3nc(-c4c(N)c5c(F)cccc5[nH]c4=O)[nH]c3c2)CC1 [Dovitinib (lactate)]; details: 2.5 µM; K562; 2-18 h
[4] = compound: CN1CCN(c2ccc3nc(-c4c(N)c5c(F)cccc5[nH]c4=O)[nH]c3c2)CC1 [Dovitinib]; details: 2.5 µM; K562; 2-18 h
[5] = compound: COc1cc(N2CCC(N3CCN(C)CC3)CC2)ccc1Nc1ncc(Cl)c(Nc2ccccc2S(=O)(=O)C(C)C)n1; details: 2.5 µM; K562; 2-18 h
[6] = compound: COc1cc(N2CCN(C)CC2)ccc1Nc1nccc(-c2cn(C)c3cnccc23)n1; details: 10 µM; K562; 2-18 h
[7] = compound: COc1cc(Nc2c(C#N)cnc3cc(OCCCN4CCN(C)CC4)c(OC)cc23)c(Cl)cc1Cl [Bosutinib]; details: 2.5 µM; K562; 2-18 h
[8] = compound: COc1ccc(-c2c[nH]c3nccc(-c4ccsc4)c23)c(OC)c1; details: 10 µM; K562; 2-18 h
[9] = compound: COc1ccc(-c2cc(C(=O)NN=C(C)c3ccc(OC)c(OC)c3)[nH]n2)cc1; details: 10 µM; K562; 2-18 h
[10] = compound: CCOc1cc2ncc(C#N)c(Nc3ccc(F)c(Cl)c3)c2cc1NC(=O)/C=C/CN(C)C [Pelitinib]; details: 2.5 µM; K562; 2-18 h
[11] = compound: CCOc1nc(NC(=O)Cc2cc(OC)ccc2OC)cc(N)c1C#N [JNK Inhibitor VIII]; details: 10 µM; K562; 2-18 h
[12] = compound: CN1CCN(c2nc(C3=C(c4c[nH]c5ccccc45)C(=O)NC3=O)c3ccccc3n2)CC1 [Sotrastaurin]; details: 2.5 µM; K562; 2-18 h
[13] = compound: CNC(=O)c1cc(Oc2ccc(NC(=O)Nc3ccc(Cl)c(C(F)(F)F)c3)cc2)ccn1 [Sorafenib (Tosylate)]; details: 10 µM; K562; 2-18 h
[14] = compound: CNC(=O)c1cc(Oc2ccc(NC(=O)Nc3ccc(Cl)c(C(F)(F)F)c3)cc2)ccn1 [Sorafenib]; details: 2.5 µM; K562; 2-18 h
[15] = compound: COc1cc2/c(=N/c3ccc(Br)cc3F)nc[nH]c2cc1OCC1CCN(C)CC1 [Vandetanib]; details: 2.5 µM; K562; 2-18 h
[16] = compound: COc1cc2ncnc(Nc3ccc(F)c(Cl)c3)c2cc1OCCCN1CCOCC1 [Gefitinib]; details: 10 µM; K562; 2-18 h
[17] = compound: COc1cc2ncnc(Nc3cccc(Br)c3)c2cc1OC; details: 10 µM; K562; 2-18 h
[18] = compound: CC[C@@H]1C(=O)N(C)c2cnc(Nc3ccc(C(=O)NC4CCN(C)CC4)cc3OC)nc2N1C1CCCC1; details: 10 µM; K562; 2-18 h

Measured: number of time points

EGFR_G719S (UniProt P00533)
1: [7]
0: [1] | [2] | [3] | [4] | [5] | [6] | [8]
2: [9]

PLK1 (UniProt P53350)
not listed: [18]
0: all other assays above

LYN (UniProt P07948)
1: [9]
not listed: [3] | [4] | [8]
0: all other assays above

LCK (UniProt P06239)
not listed: [3] | [4] | [10] | [13] | [14] | [15] | [16]
0: all other assays above

CDK5 (UniProt Q00535)
not listed: [3] | [4]
0: all other assays above

CSNK1D (UniProt P48730)
not listed: [18]
0: all other assays above

RET_M918T (clone: RET_mut) (UniProt P07949)
not listed: [3] | [4] | [5] | [15]
0: all other assays above

EGFR (UniProt P00533)
0: [1] | [2] | [3] | [4] | [5] | [6] | [8] | [9]
1: [7]

ABL1 (UniProt P00519)
0: [11] | [1] | [2] | [12] | [5] | [6]
3: [9]
4: [18]

NTRK3 (UniProt Q16288)
1: [18]
not listed: [3] | [4] | [7] | [13] | [14]
0: all other assays above

BTK (UniProt Q06187)
not listed: [18]
0: all other assays above

PTK2 (UniProt Q05397)
2: [18]
1: [7] | [15] | [16]
not listed: [3] | [4] | [17]
0: all other assays above

EGFR_T790M (UniProt P00533)
0: [1] | [2] | [3] | [4] | [5] | [6] | [7] | [8] | [9]
